Laboratory results published in article PMC13156308.
Results are given in words; binding and its absence hold for the method and conditions named. For some assays here: Binding seen in cells or lysates may run through a third protein. Some binding calls cover weakened binding; strength is not graded here. For some assays here: Tags and fused reporters may be left off the sequences shown.

Protein sequences, listed by entry. Tags and fused reporters are not part of them. Lines headed by an entry give the natural chain unless they say otherwise; changes in a name come on top. Chains listed by the source or under a name are the forms on record and can include a tag or linker.
UniProt P49736: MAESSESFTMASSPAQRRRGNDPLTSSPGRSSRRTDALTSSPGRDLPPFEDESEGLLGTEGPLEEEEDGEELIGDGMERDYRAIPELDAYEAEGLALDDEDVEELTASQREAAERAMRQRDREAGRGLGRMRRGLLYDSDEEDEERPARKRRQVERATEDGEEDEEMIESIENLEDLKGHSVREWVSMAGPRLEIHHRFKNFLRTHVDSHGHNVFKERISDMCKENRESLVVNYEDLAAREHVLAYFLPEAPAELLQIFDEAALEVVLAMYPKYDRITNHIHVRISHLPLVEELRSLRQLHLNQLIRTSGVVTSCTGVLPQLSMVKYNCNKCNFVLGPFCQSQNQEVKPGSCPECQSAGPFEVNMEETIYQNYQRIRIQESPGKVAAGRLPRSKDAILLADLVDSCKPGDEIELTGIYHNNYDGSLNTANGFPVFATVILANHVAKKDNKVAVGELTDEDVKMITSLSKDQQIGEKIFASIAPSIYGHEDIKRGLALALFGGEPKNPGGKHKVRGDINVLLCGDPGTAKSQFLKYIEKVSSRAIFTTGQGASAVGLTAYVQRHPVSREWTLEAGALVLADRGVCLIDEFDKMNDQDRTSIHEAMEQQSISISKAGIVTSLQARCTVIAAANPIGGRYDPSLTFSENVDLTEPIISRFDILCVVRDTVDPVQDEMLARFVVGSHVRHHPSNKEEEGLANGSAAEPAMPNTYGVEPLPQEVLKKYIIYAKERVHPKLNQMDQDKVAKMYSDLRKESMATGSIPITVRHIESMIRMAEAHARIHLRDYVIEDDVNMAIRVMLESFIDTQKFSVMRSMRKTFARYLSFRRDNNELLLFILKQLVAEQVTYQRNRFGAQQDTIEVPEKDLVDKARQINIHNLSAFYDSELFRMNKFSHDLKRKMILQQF
MCM2-2A histone-binding domain (MCM2-2A-HBD) (P49736, form named): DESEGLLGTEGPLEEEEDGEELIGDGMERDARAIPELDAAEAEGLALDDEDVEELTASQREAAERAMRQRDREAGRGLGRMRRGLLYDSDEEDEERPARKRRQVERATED
MCM2-2A (endogenous, MCM2-2A mutant 293T cells) (human (endogenous in 293T)) (P49736, form named): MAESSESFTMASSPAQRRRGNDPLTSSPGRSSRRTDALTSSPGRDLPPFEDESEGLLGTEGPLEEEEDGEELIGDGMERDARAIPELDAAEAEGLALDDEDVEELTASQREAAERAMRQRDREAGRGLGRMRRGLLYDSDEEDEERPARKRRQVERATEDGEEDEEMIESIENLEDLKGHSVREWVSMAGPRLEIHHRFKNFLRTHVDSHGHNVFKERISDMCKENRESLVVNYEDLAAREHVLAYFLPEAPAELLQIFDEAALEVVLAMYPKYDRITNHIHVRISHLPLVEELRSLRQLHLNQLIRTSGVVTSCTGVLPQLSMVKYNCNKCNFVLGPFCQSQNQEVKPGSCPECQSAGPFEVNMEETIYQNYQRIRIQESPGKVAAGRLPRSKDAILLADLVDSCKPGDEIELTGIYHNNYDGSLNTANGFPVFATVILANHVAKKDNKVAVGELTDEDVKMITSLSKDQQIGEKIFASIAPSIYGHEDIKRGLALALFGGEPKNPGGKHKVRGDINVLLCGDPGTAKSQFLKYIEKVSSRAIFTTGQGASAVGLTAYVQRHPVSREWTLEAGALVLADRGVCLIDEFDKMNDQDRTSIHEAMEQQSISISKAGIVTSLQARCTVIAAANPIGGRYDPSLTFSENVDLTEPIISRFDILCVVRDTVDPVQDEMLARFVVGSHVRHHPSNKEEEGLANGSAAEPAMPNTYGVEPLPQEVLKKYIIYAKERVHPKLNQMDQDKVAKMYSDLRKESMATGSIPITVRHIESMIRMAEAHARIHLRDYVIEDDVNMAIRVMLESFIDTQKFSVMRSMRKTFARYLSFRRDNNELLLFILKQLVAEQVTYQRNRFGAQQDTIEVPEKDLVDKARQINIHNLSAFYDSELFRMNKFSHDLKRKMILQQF
UniProt Q9NRF9: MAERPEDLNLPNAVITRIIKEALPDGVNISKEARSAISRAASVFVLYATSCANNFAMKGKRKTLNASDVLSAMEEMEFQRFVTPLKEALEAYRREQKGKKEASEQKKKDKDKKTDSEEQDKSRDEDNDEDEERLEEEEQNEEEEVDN
UniProt Q08945: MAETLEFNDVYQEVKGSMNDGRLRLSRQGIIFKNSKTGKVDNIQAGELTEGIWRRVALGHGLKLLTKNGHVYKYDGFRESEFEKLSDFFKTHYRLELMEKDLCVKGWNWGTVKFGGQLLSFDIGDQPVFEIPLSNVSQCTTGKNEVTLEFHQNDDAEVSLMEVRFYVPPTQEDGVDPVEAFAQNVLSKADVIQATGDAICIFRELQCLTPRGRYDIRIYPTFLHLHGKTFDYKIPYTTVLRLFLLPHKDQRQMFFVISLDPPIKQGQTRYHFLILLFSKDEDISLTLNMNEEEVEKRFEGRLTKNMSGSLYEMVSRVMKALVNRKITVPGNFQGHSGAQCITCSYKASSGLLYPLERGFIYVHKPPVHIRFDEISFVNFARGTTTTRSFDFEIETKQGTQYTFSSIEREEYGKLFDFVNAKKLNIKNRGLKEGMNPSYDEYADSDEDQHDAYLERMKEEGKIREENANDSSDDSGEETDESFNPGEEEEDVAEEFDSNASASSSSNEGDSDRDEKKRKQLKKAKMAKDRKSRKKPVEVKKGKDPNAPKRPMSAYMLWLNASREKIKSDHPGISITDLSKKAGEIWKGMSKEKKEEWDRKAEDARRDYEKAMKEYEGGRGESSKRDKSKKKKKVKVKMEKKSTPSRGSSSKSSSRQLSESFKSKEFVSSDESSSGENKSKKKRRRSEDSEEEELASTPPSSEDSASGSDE

Legend:
[1] = target: T1, POLD3-HA (full-length) (human) (UniProt Q15054); assay: co-IP; anti-HA beads, soluble extract of 293T cells (wild-type or MCM2-2A mutant) expressing HA-tagged POLD3 constructs, DNase I and ethidium bromide, 200 mM NaCl, 0.5% NP-40
T1 sequence: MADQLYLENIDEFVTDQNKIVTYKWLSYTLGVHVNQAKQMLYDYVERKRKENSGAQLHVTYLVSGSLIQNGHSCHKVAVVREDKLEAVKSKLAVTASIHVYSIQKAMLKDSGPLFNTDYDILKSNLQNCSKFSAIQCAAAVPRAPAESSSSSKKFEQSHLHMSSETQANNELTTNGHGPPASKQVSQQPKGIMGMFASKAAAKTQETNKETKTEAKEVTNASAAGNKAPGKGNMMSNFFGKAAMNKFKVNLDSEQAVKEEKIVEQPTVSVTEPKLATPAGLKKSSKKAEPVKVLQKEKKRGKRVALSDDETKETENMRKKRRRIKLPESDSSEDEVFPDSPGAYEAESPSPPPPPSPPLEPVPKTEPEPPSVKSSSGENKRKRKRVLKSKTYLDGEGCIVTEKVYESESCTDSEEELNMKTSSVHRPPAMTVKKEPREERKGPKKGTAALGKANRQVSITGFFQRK

[2] = target: full-length strep-tagged POLD3 (human) (UniProt Q15054); assay: BLI; POLD3 immobilised on Streptavidin (SAX) biosensors, BLItz, 1x PBS and 0.02% Tween; both purified
[3] = target: MCM2 (endogenous, 293T) (human (endogenous in 293T)) (UniProt P49736); assay: co-IP; anti-MCM2 antibody and protein A/G beads, lysate of wild-type or MCM2-2A mutant 293T cells, 200 mM NaCl, 0.5% NP-40; IgG as negative control
[4] = target: MCM2-2A (endogenous, MCM2-2A mutant 293T cells) (human (endogenous in 293T)) (UniProt P49736); assay: as above

Substance: POLE3 (endogenous, 293T) (from UniProt Q9NRF9 1-147)
- binding [1]: no binding

Substance: MCM2-2A histone-binding domain (MCM2-2A-HBD) (from UniProt P49736 51-160) (domain or fragment)
- binding [2]: no binding

Substance: MCM2-HBD (amino acids 51-160) (from UniProt P49736 51-160) (domain or fragment)
- binding [2]: no binding

Substance: SSRP1 (endogenous, 293T) (from UniProt Q08945 1-709)
- binding [3]: binds
- binding [4]: no binding
